Inconclusive results, whose numbers are uncertain, are shown with a selection of clear calls. Activity calls are given as the source filed them.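 The calls were made as follows: active = signal loss with fitted half-maximal concentration at or below twice the top valid tested dose in every test run; inconclusive = runs disagree, flat 30 to 70% signal loss, or poor fit; inactive = all runs flat, opposite direction, or potency beyond limit.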
Assay: general mammalian cell viability loss – inhibitor set, cherry-pick, set 2, cytotoxicity control for miR-122 modulator project, dose response (AID 720697);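 also: 0% = median of neutral control wells and -100% = MG132 positive control wells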
Conditions: HEK293T viability, CellTiter-Glo luminescence, 48 h; at 26 µM (top of the series) unless noted

SMILES	activity change, negative = cytotoxicity
CN1C(=O)c2cc(NS(=O)(=O)c3cccc(F)c3)ccc2OC[C@H]2O[C@@H](CC(=O)NCCN3CCCCC3)CC[C@H]21	inactive: 133% [at 23.5 µM]
CC(C)C(=O)Nc1ccc2c(c1)C(=O)N(C)[C@H]1CC[C@H](CC(=O)NCCc3ccccc3)O[C@H]1CO2	inconclusive: 2.28%
N=c1n(CC(=O)c2ccc(Br)s2)c2ccccc2n1Cc1ccccc1	inactive: -12.8%
CNC(=O)C[C@@H]1CC[C@@H]2[C@@H](COc3ccc(NC(=O)Nc4ccc(F)c(F)c4)cc3C(=O)N2C)O1	inconclusive: -37.7%
C[C@@H]1CN([C@H](C)CO)S(=O)(=O)c2ccc(C3=CCCC3)cc2O[C@@H]1CN(C)C(=O)C1CCOCC1	inactive: 95.3%
COc1cccc(C(=O)Nc2ccc3c(c2)C(=O)N(C)[C@@H]2CC[C@@H](CC(=O)N[C@H](C)c4ccccc4)O[C@@H]2CO3)c1	inconclusive: -76.9%
Cc1cc(C(=O)Nc2ccc3c(c2)C(=O)N(C)[C@H]2CC[C@H](CC(=O)N[C@H](C)c4ccccc4)O[C@H]2CO3)no1	inactive: 37.3%

Reprinted from the entries so far, two compounds:
SMILES	activity change, negative = cytotoxicity
COc1cccc(C(=O)Nc2ccc3c(c2)C(=O)N(C)[C@@H]2CC[C@@H](CC(=O)N[C@H](C)c4ccccc4)O[C@@H]2CO3)c1	inconclusive: -76.9%
Cc1cc(C(=O)Nc2ccc3c(c2)C(=O)N(C)[C@H]2CC[C@H](CC(=O)N[C@H](C)c4ccccc4)O[C@H]2CO3)no1	inactive: 37.3%
